Columns and labels:
[1] = system: yam tyrosinase; assay: Circular dichroism spectroscopy of yam tyrosinase secondary structure in presence of inhibitors; parameters: species or system Amorphophallus paeoniifolius; settings: CD 190-250 nm, 10 min incubation; for Β-turns, % change in secondary structure of yam tyrosinase: control 2.1; for α-helix, % change in secondary structure of yam tyrosinase: control 15.6; for β-sheet, % change in secondary structure of yam tyrosinase: control 33.8
[2] = system: yam tyrosinase; assay: Fluorescence spectroscopy of yam tyrosinase in presence of inhibitors; parameters: species or system Amorphophallus paeoniifolius; settings: excitation 270 nm; enzyme alone 307 nm

SMILES	Β-turns, % change in secondary structure of yam tyrosinase [1]	α-helix, % change in secondary structure of yam tyrosinase [1]	β-sheet, % change in secondary structure of yam tyrosinase [1]	spectral shift of yam tyrosinase fluorescence emission [2]
CC(/C=C/C=C(\C)C(=O)O[C@@H]1O[C@H](CO[C@@H]2O[C@H](CO)[C@@H](O)[C@H](O)[C@H]2O)[C@@H](O)[C@H](O)[C@H]1O)=C\C=C\C=C(C)\C=C\C=C(/C)C(=O)O[C@@H]1O[C@H](CO[C@@H]2O[C@H](CO)[C@@H](O)[C@H](O)[C@H]2O)[C@@H](O)[C@H](O)[C@H]1O [Crocin, crocin]	4.6%	9.5%	36.5%	no spectral shift
Oc1ccc(O)cc1 [Hydroquinone, hydroquinone]	4.5%	11.9%	35.2%	red shift
O=c1cc(CO)occ1O [Kojic acid]	4.5%	14.9%	32.3%	no spectral shift
N[C@@H](Cc1ccc(O)c(O)c1)C(=O)O [L-DOPA, L-3 dihydroxyphenylalanine]	13.5%	8.2%	25.8%	–

Source: PMC6811792, “The Binding Affinity of Small Molecules with Yam Tyrosinase (Catechol Oxidase): A Biophysical Study” (Biochemistry Research International, 2019)
